The other results are listed elsewhere or left out. Plates or batches differ in their baseline, so values are only roughly comparable.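 Hits were defined as a z-score below −3.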
What follows are compounds tested against T1, YTHDF1 YTH domain (aa 365-554) (UniProt Q9BYJ9) (assay: tryptophan fluorescence intensity z-score (mean); higher = higher fluorescence, less quenching (negative = binding / quenching)). Details: 10 µM.
T1 sequence (whole entry): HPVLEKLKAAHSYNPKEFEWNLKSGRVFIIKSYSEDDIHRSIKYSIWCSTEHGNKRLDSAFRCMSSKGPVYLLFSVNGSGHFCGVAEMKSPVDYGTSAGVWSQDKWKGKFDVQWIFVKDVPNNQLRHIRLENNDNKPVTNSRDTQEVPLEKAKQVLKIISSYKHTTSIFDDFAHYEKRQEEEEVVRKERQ

SMILES	tryptophan fluorescence intensity z-score
Cc1cccc(C)c1OCC(C)N (centres undefined) (plate: M 9-10)	inactive: 0.0814
CN(C)CCC=C1c2ccccc2COc2ccccc21 (plate: M 3-4)	inactive: 0.103
CN1CCC[C@@H]1Cc1c[nH]c2ccc(CCS(=O)(=O)c3ccccc3)cc12 (plate: M 11-12)	inactive: -0.177
CC(C)[N+](C)(CCOC(=O)C1c2ccccc2Oc2ccccc21)C(C)C (plate: M 5-6)	inactive: -0.0898
COC(=O)C(Cc1ccccc1)NC(=O)/C(=C1/OC(=O)C(c2ccccc2)=C1O)c1ccccc1 (centres undefined) (plate: M 19-20)	inactive: 0.171
CC1=CC(=O)C(C(C)C)=CC1=O (plate: M 23-24)	inactive: -0.0337
OCc1cccnc1 (plate: M 7-8)	inactive: -0.0897
O=Cc1ccccc1O[C@@H]1O[C@H](CO)[C@@H](O)[C@H](O)[C@H]1O (plate: M 19-20)	inactive: 0.566
Cn1cnc2c1c(=O)[nH]c(=O)n2C (plate: M 5-6)	inactive: -0.247
COc1ccc(-c2oc3cc(OC)c(OC)c(OC)c3c(=O)c2OC)cc1 (plate: M 19-20)	inactive: -0.401
CCN(CC)CCNC(=O)c1cc(Cl)c(N)cc1OC (plate: M 3-4)	inactive: -0.386
CCOc1ccc2ccccc2c1C(=O)N[C@@H]1C(=O)N2[C@@H]1SC(C)(C)[C@@H]2C(=O)O (plate: M 3-4)	inactive: 0.0533
CN(C)C/C=C(/c1ccc(Br)cc1)c1cccnc1 (plate: M 13-14)	inactive: 0.0419
CC(C)(CO)C(O)C(=O)NCCCO (centres undefined) (plate: M 11-12)	inactive: -0.603
COc1ccc(-c2coc3cc(OC)ccc3c2=O)cc1 (plate: M 15-16)	inactive: 0.421
C[n+]1c2cc(N)ccc2cc2ccc(N)cc21 (plate: M 5-6)	inactive: -0.567
CCC[C@@H]1C[C@@H](C(=O)N[C@@H]([C@H]2O[C@H](SC)[C@H](O)[C@@H](O)[C@H]2O)[C@H](C)Cl)N(C)C1 (plate: M 1-2)	inactive: 0.183
O=C(N[C@H](CO)[C@H](O)c1ccc([N+](=O)[O-])cc1)C(Cl)Cl (plate: M 1-2)	inactive: 0.837
O=C(O)CCNC(=O)c1ccccc1 (plate: M 23-24)	inactive: 0.773
C=C[C@@](C)(O)CCC1C(=C)CCC2[C@@](C)(CO)CCC[C@]12C (some centres undefined) (plate: M 17-18)	inactive: 0.136
CN[C@@H]1[C@@H](O[C@H]2O[C@H](CO)[C@@H](N)[C@H](O)[C@H]2O)OC2C[C@@H](N)[C@@H](O[C@H]3[C@H](O)[C@@H](O)[C@H](N)C[C@@H]3N)OC2[C@@H]1O (some centres undefined) (plate: M 9-10)	inactive: -0.16
CC1(C)O[C@H]2CC(=O)OC[C@]23[C@H]2CC[C@@]4(C)[C@H](c5ccoc5)OC(=O)[C@H]5O[C@]54[C@]2(C)C(=O)C[C@@H]13 (plate: M 21-22)	inactive: 0.384
NCCCC(=O)O [gamma-AMINOBUTYRICACID] (plate: M 17-18)	inactive: 0.697

Sorted by molecular weight (ascending): part of the list above.
SMILES	tryptophan fluorescence intensity z-score
NCCCC(=O)O [gamma-AMINOBUTYRICACID] (plate: M 17-18)	inactive: 0.697
CN(C)CCC=C1c2ccccc2COc2ccccc21 (plate: M 3-4)	inactive: 0.103
O=C(N[C@H](CO)[C@H](O)c1ccc([N+](=O)[O-])cc1)C(Cl)Cl (plate: M 1-2)	inactive: 0.837
CCC[C@@H]1C[C@@H](C(=O)N[C@@H]([C@H]2O[C@H](SC)[C@H](O)[C@@H](O)[C@H]2O)[C@H](C)Cl)N(C)C1 (plate: M 1-2)	inactive: 0.183

Following part:

SMILES	tryptophan fluorescence intensity z-score
CC(C)CCC[C@@H](C)[C@H]1CC[C@H]2[C@@H]3CC(=O)[C@H]4C[C@@H](O)CC[C@]4(C)[C@H]3CC[C@]12C [5alpha-CHOLESTAN-3beta-OL-6-ONE] (plate: M 15-16)	inactive: 0.49
CCCCCCCCCCCCCCCCCCCCCCO (plate: M 13-14)	inactive: 0.523
CC(=O)Oc1cc(OC(C)=O)c2c(c1)O[C@H](c1ccc(OC(C)=O)c(OC(C)=O)c1)[C@@H](OC(C)=O)C2 (plate: M 21-22)	inactive: -0.0724
CN[C@H](CC(=O)O)C(=O)O (plate: M 21-22)	inactive: 0.377
NS(=O)(=O)c1cc2c(cc1Cl)NC(C(Cl)Cl)NS2(=O)=O (centres undefined) (plate: M 5-6)	inactive: 0.0914
CN[C@@H]1[C@H](O)[C@H](NC)[C@H]2O[C@@]3(O)C(=O)C[C@@H](C)O[C@H]3O[C@@H]2[C@H]1O (plate: M 5-6)	inactive: -0.39
Cc1onc(-c2ccccc2Cl)c1C(=O)N[C@@H]1C(=O)N2[C@@H]1SC(C)(C)[C@@H]2C(=O)O (plate: M 1-2)	inactive: 0.205
COc1c(CC(=O)c2cc3c(cc2O)OC(C)(C)C(O)C3)ccc2c1C=CC(C)(C)O2 (centres undefined) (plate: M 15-16)	inactive: 0.541
C=CC(C1=CC(=O)C(OC)=CC1=O)c1ccccc1 (centres undefined) (plate: M 15-16)	inactive: -0.435
C[C@H]1c2cccc(O)c2C(=O)C2=C(O)[C@]3(O)C(=O)C(C(N)=O)=C(O)[C@@H](N(C)C)[C@@H]3[C@@H](O)[C@@H]21 (plate: M 3-4)	inactive: -0.176
C[C@](N)(Cc1ccc(O)c(O)c1)C(=O)O (plate: M 3-4)	inactive: -0.421
Clc1ccc(C(Cn2ccnc2)OCc2ccsc2Cl)c(Cl)c1 (centres undefined) (plate: M 11-12)	inactive: -0.827
C[C@@H]1CC[C@H]2[C@](C)(CO)[C@@H](O)CC[C@]2(C)[C@@]12CC[C@@](CO)(CCO)O2 (plate: M 19-20)	inactive: 0.621
O=C(O)C1CC([C@@H]2CCCCN2)CN2CCCCC12 (some centres undefined) (plate: M 19-20)	inactive: 0.375
COc1ccc2c(c1)OC/C(=C/c1ccc(OC)c(OC)c1)C2=O (plate: M 21-22)	inactive: -0.0395
COc1cc(C(=O)NCc2ccc(OCCN(C)C)cc2)cc(OC)c1OC (plate: M 5-6)	inactive: -0.0754
CCc1nc(N)nc(N)c1-c1ccc(Cl)cc1 (plate: M 5-6)	inactive: 0.125
CC(=O)[C@@]1(O)CC[C@H]2[C@@H]3C[C@H](C)C4=CC(=O)C=C[C@]4(C)[C@@]3(F)[C@@H](O)C[C@@]21C (plate: M 3-4)	inactive: -0.119
CC(C)c1c(O)c(-c2cc3c(c(C(C)C)c2O)CCC2C(C)(C)CCC[C@]32C)cc2c1CCC1C(C)(C)CCC[C@]21C (some centres undefined) (plate: M 13-14)	inactive: 0.698
C1CCC(C(CC2CCCCN2)C2CCCCC2)CC1 (centres undefined) (plate: M 7-8)	inactive: 0.188
COc1ccc(/C=C/C(=O)c2ccc(O)cc2O)cc1 (plate: M 19-20)	inactive: -0.214
O=C(O)c1cn(C2CC2)c2cc(N3CCNCC3)c(F)cc2c1=O (plate: M 9-10)	inactive: -0.556
COc1ccc2c(c1)OCC(Cc1ccc(OC)c(O)c1)C2=O (centres undefined) (plate: M 15-16)	inactive: 0.192

SMILES	tryptophan fluorescence intensity z-score
Cc1cc(C(C)(C)C)c(O)c(C(C)(C)C)c1 (plate: M 13-14)	inactive: 0.372
CC(=O)Nc1ccc(OCC(O)CNC(C)C)cc1 (centres undefined) (plate: M 13-14)	inactive: 1.04
CN1[C@@H]2CC[C@H]1C[C@@H](OC(c1ccccc1)c1ccccc1)C2 (plate: M 1-2)	inactive: 0.295
CCCC(=O)Nc1ccc(OCC(O)CNC(C)C)c(C(C)=O)c1 (centres undefined) (plate: M 5-6)	inactive: 0.00314
COc1c(O)cc(O)cc1O (plate: M 15-16)	inactive: 0.623
O=C(Nc1ccccc1)OCC(CN1CCCCC1)OC(=O)Nc1ccccc1 (centres undefined) (plate: M 11-12)	inactive: 0.307
C[C@@H]1O[C@@H](O[C@H]2[C@H](Oc3cc(O)c4c(c3)O[C@H](c3ccc(O)cc3)CC4=O)O[C@H](CO)[C@@H](O)[C@@H]2O)[C@H](O)[C@H](O)[C@H]1O (plate: M 17-18)	inactive: 0.196
COc1cc2c(cc1OC)Cc1cc(OC)c(OC)cc1Cc1cc(OC)c(OC)cc1C2 (plate: M 21-22)	inactive: 1.49
N[C@@H](CC(=O)N1CCn2c(nnc2C(F)(F)F)C1)Cc1cc(F)c(F)cc1F (plate: M 11-12)	inactive: 0.462
C#CC1(O)CC[C@H]2[C@@H]3CCC4=CC(=O)CC[C@@H]4[C@H]3CC[C@@]21CC (mixture of isomers) (plate: M 3-4)	inactive: 0.0389
CC(=O)OCC(=O)[C@@]12OC3(CCCC3)O[C@@H]1C[C@H]1[C@@H]3CCC4=CC(=O)C=C[C@]4(C)[C@@]3(F)[C@@H](O)C[C@@]12C (plate: M 9-10)	inactive: -0.46
COc1cc(O)c(C(=O)/C=C/c2ccc(O)c(OC)c2)c(OC)c1 (plate: M 19-20)	inactive: -0.32
COc1cc(C(C)=O)cc(OC)c1O (plate: M 17-18)	inactive: -0.0754
CC(C)=CCC/C(C)=C\CO (plate: M 17-18)	inactive: -0.171
COCCCOc1ccnc(C[S+]([O-])c2nc3ccccc3[nH]2)c1C (centres undefined) (plate: M 11-12)	inactive: 0.204
O=C(CCCCC(=O)Nc1c(I)cc(I)c(C(=O)O)c1I)Nc1c(I)cc(I)c(C(=O)O)c1I (plate: M 5-6)	inactive: 0.305
CNCC[C@@H](Oc1ccccc1C)c1ccccc1 (plate: M 11-12)	inactive: -0.623
Cc1ccc(C(=O)C(C)CN2CCCCC2)cc1 (centres undefined) (plate: M 23-24)	inactive: 0.308
CCCCC1C(=O)N(c2ccccc2)N(c2ccccc2)C1=O (plate: M 5-6)	inactive: 0.116
O=C(O)/C=C/C=C/c1ccccc1 (plate: M 17-18)	inactive: -0.253
CC1=CC(=O)c2ccccc2C1=O (plate: M 7-8)	inactive: 0.441
CC(=O)/N=c1/sc(S(N)(=O)=O)nn1C (plate: M 7-8)	inactive: -0.377
COc1ccc(-c2cc(=O)c3c(O)c(OC)c(OC)c(OC)c3o2)cc1OC (plate: M 19-20)	inactive: 0.427

Random excerpt: two records from the list
SMILES	tryptophan fluorescence intensity z-score
C[C@@H]1O[C@@H](O[C@H]2[C@H](Oc3cc(O)c4c(c3)O[C@H](c3ccc(O)cc3)CC4=O)O[C@H](CO)[C@@H](O)[C@@H]2O)[C@H](O)[C@H](O)[C@H]1O (plate: M 17-18)	inactive: 0.196
COc1cc(O)c(C(=O)/C=C/c2ccc(O)c(OC)c2)c(OC)c1 (plate: M 19-20)	inactive: -0.32

— the supplement of paper PMC9578143, “Small-Molecule Ebselen Binds to YTHDF Proteins Interfering with the Recognition of N^6-Methyladenosine-Modified RNAs” (ACS Pharmacology & Translational Science, 2022)
